Source: patent publication US11898155B2, “Method for introducing molecule and composition containing inhibitor” (Pearl Kogyo Co., Ltd., priority 2017, dated 2024)
At least one structure is not confirmed: it was looked up by name or label, or the drawing left a doubt.

System: L-929 cells
Test: Gene transfer efficiency (GFP-expressing cells/viable cell number, Cytell) after plasma introduction with inhibitor treatment
Assay type: cell-based, mouse
Details: concentration of inhibitor changed, plasma irradiation 1 msec, normalized to control without inhibitor = 1 (FIGS. 8 to 11)
Protocol: Mouse fibroblast L-929 cells were seeded on a 96-well plate and were cultured for 24 h in CO2 incubator. A culture medium was removed by aspiration, and 100 μL of nocodazole (inhibitor) free-culture medium, 1 μM nocodazole-containing culture medium, or 100 μM nocodazole-containing culture medium was added to each well. The cells were cultured for 30 min in CO2 incubator. Next, the culture medium was removed by aspiration, and 6.0 μg/6.0 μL of pAcGFP1-N1 plasmid (selected molecule) solution was added dropwise to each well. The 96-well plate was set in plasma irradiation equipment and irradiated with plasma. […]
A selected molecule was introduced in the same manner as in Example 1, except the point that in the inhibitor treatment step using 1 μM nocodazole, the treatment time was changed from 1 min to 120 min. […] The gene transfer efficiency (%) was calculated, using a Cytell (Cytell Cell Imaging System, manufactured by GE Healthcare, Inc.), as (the number of GFP-expressing cells/viable cell number). […]
Cell viability and gene transfer efficiency were determined in the same manner as in Example 4, except the point that chloroquine was used as the inhibitor.
Cell viability and gene transfer efficiency were determined in the same manner as in Example 4, except the point that LY-294002 was used as the inhibitor. […]

`COC[C@H]1OC(=O)c2coc3c2[C@@]1(C)C1=C(C3=O)[C@@H]2CCC(=O)[C@@]2(C)C[C@H]1OC(C)=O` [wortmannin] was tested, and the gene introduction rate was “significantly increased”.
